These are yes or no findings as the source states them, for the method shown. In cells and extracts the contact can be indirect. A result given as binding can be weak or reduced; the word gives no strength. Sequences can lack the tags named with a protein.
Tests used:
Assay in all cases: pull-down; His6-tagged gp2 co-expressed with the untagged partner in E. coli; Ni2+ pull-down, SDS-PAGE
[1] = target: His6-tagged 201Φ2-1 gp2 A145D (Pseudomonas phage 201Φ2-1)
[2] = target: His6-tagged 201Φ2-1 gp2 (ChmB), wild type (Pseudomonas phage 201Φ2-1) (UniProt B3FJX8)
[3] = target: His6-tagged 201Φ2-1 gp2 Q53A (Pseudomonas phage 201Φ2-1)

By UniProt entry, the sequences of proteins in these tests, tags left out. Where a name states a change or a piece, a line headed by the entry shows the natural chain unless it says otherwise.
UniProt B3FJX8: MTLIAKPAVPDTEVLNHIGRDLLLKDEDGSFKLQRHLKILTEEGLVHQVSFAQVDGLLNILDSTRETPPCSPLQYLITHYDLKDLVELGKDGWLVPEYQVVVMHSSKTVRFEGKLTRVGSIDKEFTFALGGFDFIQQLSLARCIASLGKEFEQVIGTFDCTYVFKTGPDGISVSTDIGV

Measured: binding

B1: 201Φ2-1 ChmA (gp105), full-length, untagged (protein, UniProt B3FIW8 1-631)
chain: MIRDTATNTTQTQAAPQQAPAQQFTQAPQEKPMQSTQSQPTPSYAGTGGINSQFTRSGNVQGGDARASEALTVFTRLKEQAVAQQDLADDFSILRFDRDQHQVGWSSLVIAKQISLNGQPVIAVRPLILPNNSIELPKRKTNIVNGMQTDVIESDIDVGTVFSAQYFNRLSTYVQNTLGKPGAKVVLAGPFPIPADLVLKDSELQLRNLLIKSVNACDDILALHSGERPFTIAGLKGQQGETLAAKVDIRTQPLHDTVGNPIRADIVVTTQRVRRNGQQENEFYETDVKLNQVAMFTNLERTPQAQAQTLFPNQQQVATPAPWVASVVITDVRNADGIQANTPEMYWFALSNAFRSTHGHAWARPFLPMTGVAKDMKDIGALGWMSALRNRIDTKAANFDDAQFGQLMLSQVQPNPVFQIDLNRMGETAQMDSLQLDAAGGPNAQKAAATIIRQINNLGGGGFERFFDHTTQPILERTGQVIDLGNWFDGDEKRDRRDLDNLAALNAAEGNENEFWGFYGAQLNPNLHPDLRNRQSRNYDRQYLGSTVTYTGKAERCTYNAKFIEALDRYLAEAGLQITMDNTSVLNSGQRFMGNSVIGNNMVSGQAQVHSAYAGTQGFNTQYQTGPSSFY
binds: all assays above

Source: PMC10643120 (Nature structural & molecular biology, 2023)
